Some of the results follow.

By UniProt entry, the sequences of proteins in these tests, tags left out. Where a name states a change or a piece, a line headed by the entry shows the natural chain unless it says otherwise.
UniProt Q14CZ7: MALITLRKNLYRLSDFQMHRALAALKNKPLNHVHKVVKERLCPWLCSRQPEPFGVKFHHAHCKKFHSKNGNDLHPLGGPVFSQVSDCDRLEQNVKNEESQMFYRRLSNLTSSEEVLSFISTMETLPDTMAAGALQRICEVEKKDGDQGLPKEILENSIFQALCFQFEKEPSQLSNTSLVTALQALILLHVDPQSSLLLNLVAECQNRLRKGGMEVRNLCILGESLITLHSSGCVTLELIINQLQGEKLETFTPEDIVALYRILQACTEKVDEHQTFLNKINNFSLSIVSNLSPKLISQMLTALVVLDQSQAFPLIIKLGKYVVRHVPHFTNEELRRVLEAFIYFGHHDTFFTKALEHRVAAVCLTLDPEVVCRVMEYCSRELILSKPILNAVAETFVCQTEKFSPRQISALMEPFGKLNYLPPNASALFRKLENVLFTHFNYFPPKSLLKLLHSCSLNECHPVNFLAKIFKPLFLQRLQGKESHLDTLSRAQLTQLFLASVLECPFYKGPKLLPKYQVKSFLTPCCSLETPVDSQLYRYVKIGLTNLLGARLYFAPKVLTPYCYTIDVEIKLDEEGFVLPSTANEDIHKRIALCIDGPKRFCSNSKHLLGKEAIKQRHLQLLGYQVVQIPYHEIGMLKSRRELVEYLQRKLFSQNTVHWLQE
UniProt Q9BSK4: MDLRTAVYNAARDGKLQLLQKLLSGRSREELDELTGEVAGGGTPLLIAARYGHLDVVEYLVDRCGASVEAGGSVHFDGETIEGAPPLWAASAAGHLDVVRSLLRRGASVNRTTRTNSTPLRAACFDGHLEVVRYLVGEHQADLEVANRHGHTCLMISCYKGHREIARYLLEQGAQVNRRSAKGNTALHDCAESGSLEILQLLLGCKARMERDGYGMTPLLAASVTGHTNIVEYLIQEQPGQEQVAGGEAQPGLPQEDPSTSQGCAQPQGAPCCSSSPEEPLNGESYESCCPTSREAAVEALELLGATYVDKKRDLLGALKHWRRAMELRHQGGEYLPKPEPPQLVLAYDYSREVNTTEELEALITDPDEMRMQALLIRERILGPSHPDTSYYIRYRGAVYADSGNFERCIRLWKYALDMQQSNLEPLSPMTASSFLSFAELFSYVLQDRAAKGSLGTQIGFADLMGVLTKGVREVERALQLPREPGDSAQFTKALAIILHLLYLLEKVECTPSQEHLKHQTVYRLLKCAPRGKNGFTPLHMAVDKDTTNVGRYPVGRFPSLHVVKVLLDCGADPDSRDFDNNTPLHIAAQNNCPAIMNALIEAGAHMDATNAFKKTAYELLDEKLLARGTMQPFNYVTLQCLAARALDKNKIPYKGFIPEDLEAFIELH
UniProt Q9UKA2: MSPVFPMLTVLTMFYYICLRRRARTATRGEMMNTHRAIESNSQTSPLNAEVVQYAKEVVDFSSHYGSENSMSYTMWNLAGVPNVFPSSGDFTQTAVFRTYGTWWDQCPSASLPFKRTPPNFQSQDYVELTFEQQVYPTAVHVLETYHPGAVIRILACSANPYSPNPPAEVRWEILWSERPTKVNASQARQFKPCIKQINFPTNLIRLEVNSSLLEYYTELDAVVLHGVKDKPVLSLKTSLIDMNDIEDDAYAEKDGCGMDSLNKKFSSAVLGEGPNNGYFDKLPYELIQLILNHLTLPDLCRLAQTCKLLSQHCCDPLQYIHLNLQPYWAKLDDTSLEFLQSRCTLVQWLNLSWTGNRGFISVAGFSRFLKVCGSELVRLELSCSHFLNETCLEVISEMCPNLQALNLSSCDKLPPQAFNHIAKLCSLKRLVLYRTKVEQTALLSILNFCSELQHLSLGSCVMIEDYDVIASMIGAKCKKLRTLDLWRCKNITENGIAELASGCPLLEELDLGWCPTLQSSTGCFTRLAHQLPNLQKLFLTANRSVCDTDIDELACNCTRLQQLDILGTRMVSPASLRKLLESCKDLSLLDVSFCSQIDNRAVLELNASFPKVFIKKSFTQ
UniProt Q13045: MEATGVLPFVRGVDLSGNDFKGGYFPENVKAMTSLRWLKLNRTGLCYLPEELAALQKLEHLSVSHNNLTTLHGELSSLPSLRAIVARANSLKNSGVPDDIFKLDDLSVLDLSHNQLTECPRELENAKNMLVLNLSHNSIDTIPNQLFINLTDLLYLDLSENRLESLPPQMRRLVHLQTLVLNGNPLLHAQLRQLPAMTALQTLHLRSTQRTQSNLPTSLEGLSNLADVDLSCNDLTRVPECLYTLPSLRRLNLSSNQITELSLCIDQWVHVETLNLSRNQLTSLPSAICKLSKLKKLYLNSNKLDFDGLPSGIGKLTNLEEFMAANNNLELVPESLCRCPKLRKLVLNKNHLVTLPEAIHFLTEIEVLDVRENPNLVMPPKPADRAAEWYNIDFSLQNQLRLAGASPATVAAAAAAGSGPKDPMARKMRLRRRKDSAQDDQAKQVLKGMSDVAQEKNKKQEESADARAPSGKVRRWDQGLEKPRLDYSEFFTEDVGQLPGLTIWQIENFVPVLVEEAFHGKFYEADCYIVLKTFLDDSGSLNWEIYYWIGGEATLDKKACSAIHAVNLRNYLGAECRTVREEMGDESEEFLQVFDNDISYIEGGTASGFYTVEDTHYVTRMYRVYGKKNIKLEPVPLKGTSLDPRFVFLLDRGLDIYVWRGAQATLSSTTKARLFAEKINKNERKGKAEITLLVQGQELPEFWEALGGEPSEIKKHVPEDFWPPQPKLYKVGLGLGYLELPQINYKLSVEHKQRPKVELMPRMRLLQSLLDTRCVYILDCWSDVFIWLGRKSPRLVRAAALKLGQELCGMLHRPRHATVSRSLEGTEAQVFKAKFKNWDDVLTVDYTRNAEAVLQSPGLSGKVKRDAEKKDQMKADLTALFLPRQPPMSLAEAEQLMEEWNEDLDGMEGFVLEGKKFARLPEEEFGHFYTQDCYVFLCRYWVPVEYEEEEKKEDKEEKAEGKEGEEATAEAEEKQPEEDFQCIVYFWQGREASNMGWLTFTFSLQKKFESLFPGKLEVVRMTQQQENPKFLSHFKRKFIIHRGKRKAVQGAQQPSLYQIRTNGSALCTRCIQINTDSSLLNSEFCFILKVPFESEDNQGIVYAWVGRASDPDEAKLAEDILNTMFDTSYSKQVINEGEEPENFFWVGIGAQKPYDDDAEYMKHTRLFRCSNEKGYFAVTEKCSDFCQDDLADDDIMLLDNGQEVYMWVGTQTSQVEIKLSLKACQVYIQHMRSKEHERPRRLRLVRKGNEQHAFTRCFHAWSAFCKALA
UniProt Q8N3Y1: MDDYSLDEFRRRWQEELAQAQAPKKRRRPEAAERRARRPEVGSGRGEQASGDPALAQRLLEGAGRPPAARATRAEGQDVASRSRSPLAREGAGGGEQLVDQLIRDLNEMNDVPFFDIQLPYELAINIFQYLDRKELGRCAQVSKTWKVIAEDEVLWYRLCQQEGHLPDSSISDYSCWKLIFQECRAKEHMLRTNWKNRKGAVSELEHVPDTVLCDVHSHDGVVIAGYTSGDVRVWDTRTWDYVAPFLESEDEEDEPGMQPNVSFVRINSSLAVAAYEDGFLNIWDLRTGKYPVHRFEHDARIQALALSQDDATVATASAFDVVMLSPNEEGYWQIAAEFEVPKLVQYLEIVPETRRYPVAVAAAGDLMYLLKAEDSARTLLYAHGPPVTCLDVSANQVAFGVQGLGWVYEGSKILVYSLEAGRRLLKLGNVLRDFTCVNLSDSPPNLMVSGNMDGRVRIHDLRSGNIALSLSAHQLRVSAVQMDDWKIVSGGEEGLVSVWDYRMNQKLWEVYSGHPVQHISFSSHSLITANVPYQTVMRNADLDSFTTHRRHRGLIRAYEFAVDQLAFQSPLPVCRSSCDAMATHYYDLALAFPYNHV
UniProt Q9Y4F1: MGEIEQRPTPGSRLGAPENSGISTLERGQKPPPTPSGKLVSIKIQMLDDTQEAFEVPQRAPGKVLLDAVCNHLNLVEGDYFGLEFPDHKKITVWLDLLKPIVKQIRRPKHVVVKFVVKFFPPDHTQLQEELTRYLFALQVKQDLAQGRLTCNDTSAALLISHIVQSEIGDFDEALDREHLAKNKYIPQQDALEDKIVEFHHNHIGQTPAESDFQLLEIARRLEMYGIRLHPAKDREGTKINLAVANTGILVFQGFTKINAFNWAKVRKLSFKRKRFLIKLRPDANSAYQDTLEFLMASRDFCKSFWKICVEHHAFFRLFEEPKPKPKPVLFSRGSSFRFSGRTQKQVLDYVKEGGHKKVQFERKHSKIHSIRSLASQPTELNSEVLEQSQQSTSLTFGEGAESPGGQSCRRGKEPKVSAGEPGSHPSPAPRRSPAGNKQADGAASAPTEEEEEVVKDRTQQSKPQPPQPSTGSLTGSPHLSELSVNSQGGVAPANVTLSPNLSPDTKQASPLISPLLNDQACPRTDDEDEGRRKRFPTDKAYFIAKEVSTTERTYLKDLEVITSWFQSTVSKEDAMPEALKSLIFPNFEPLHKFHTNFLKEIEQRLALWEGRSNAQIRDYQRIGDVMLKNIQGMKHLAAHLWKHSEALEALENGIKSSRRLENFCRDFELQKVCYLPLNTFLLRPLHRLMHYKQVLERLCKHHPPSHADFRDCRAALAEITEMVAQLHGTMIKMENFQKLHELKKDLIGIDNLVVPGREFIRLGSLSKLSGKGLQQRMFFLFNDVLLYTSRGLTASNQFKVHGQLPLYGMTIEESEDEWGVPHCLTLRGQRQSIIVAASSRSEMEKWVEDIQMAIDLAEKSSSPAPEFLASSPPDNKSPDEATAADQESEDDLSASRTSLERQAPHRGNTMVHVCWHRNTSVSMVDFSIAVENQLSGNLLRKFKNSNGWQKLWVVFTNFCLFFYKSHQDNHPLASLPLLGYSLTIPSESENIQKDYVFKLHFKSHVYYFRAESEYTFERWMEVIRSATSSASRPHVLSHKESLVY
UniProt P31994: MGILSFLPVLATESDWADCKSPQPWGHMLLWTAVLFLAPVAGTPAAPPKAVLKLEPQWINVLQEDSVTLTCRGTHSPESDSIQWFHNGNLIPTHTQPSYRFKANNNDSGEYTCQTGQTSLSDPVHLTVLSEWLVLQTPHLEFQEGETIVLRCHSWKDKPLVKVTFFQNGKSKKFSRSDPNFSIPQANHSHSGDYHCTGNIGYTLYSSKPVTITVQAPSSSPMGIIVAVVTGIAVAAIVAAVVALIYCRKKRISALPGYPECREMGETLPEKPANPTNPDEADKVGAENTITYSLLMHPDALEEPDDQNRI
UniProt Q4L180: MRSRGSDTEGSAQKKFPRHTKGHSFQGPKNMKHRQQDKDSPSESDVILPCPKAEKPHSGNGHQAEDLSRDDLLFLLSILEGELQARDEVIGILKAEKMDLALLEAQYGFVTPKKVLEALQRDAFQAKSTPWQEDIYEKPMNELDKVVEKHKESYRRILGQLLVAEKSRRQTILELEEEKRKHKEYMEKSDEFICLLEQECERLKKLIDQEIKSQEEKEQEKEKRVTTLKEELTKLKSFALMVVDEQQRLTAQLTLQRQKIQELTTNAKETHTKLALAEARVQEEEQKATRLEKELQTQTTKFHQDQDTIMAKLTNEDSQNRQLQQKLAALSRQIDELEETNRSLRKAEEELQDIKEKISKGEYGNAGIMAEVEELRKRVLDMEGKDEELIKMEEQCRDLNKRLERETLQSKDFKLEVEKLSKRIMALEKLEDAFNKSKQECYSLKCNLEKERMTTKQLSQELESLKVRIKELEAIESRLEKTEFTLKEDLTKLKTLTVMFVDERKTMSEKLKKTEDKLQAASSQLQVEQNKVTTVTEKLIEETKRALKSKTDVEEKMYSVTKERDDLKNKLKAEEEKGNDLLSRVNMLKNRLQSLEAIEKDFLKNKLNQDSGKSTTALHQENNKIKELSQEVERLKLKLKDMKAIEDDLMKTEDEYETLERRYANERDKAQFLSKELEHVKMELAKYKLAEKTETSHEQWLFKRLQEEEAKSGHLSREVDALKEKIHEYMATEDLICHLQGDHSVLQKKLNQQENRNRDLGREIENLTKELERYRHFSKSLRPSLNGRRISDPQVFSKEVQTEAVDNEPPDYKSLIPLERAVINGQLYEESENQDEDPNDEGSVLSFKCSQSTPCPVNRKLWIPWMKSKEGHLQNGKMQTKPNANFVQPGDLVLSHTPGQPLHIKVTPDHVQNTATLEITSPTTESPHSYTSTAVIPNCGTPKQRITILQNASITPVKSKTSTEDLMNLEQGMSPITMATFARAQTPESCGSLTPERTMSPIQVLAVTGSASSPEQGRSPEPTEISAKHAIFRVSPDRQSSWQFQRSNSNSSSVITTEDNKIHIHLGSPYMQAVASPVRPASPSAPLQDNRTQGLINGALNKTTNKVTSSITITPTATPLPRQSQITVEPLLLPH

Compound in the assay: COC(=O)N[C@@H](C)CNc1nccc(-c2cn(C(C)C)nc2-c2cc(Cl)cc(NS(C)(=O)=O)c2F)n1 [encorafenib]
Kind of assay: log2 fold change, soluble protein after heating vs DMSO (PISA); higher = thermal stabilisation; K562 lysate, 10 uM; active = over 0.2 and 3.5 SD of the protein, either way, in both replicates (recomputed). The method, boiled down: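 K562 pellets were dounce-homogenised in PBS pH 7.4 containing 1 mM MgCl2, and the crude extract, at 1 mg/mL protein, was exposed to 10 μM compound for 30 min. Aliquots were heated for 3 min across 48°C-58°C, pooled, brought to 0.5% NP-40 at 4°C and spun at 21,000xg for 90 min, with the supernatant taken as soluble protein. TMTpro 16plex LC-MS/MS with equalised channel sums quantified that protein. Values are log-two fold changes in thermal stability relative to solvent controls, taken from duplicates.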
Take FASTKD3 (UniProt Q14CZ7): the log2 fold change was inactive: 0.175. Consider FANCA (UniProt O15360), for which the log2 fold change is inactive: -0.041.

On to FEM1A (UniProt Q9BSK4), for which the log2 fold change was inactive: -0.122.

FBXL4 (UniProt Q9UKA2): the log2 fold change is inactive: -0.06. Then FLII isoform 2 (UniProt Q13045), with inactive: -0.028; and FBXW8 (UniProt Q8N3Y1), with inactive: -0.07; and FIP1L1 isoform 3 (UniProt Q6UN15), with inactive: -0.128. As for FARP1 isoform 2 (UniProt Q9Y4F1), the log2 fold change was inactive: -0.117.

For the target FHAD1 isoform 3 (UniProt B1AJZ9), the log2 fold change was inactive: -0.142. The result for FCGR2B (UniProt P31994) reads inactive: 0.087; that for FILIP1L (UniProt Q4L180), inactive: 0.022. On to FOS (UniProt P01100), for which the log2 fold change was inactive: -0.013.

For the origin of these results see the supplement of paper PMC10849652.
